Results on one molecule are retold here after patent publication US20240401071A1.

These are yes or no findings as the source states them, for the method shown. Binding calls can cover weak binding; strength is not graded here. Sequences can lack the tags named with a protein.

For the assay, the target named is small subunit of Rubisco (rbcS) (Arabidopsis thaliana). The assay can be described thus: summary of the IPMS result.

B1: PRL-1-eGFP (C-terminal GFP fusion with PRL-1, ribulose bisphosphate carboxylase/oxygenase large subunit-related, Potri.012G062600) (protein, not shown: large carriers)
chain: MGHQPRLGHDRPYGVVGRTGFSFLQRTCSLIRDIYFTQDWVSLPSVLPVASGGIHVWHMPALTEIFGDDSVLQFDGGTLGHPWGIAPSAVANRVALEACVQARNEGRDLAREGNEIIREASKWSPELAAACEVWKEIKFEFQAMDML
Consider B1, for which the binding entry is on record as “binds”.
